These results are taken from publication PMC4965873.

Protein sequences, listed by entry. Tags and fused reporters are not part of them. Residues count along the entry.
UniProt Q64010: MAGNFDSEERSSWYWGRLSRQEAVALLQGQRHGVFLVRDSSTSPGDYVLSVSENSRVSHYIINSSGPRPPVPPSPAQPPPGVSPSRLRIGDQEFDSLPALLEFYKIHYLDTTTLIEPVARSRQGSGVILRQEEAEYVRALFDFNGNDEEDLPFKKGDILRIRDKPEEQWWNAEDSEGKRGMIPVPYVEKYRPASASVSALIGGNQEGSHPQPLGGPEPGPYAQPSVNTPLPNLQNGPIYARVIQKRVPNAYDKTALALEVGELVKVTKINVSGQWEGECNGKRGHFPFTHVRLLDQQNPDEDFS
UniProt P39688: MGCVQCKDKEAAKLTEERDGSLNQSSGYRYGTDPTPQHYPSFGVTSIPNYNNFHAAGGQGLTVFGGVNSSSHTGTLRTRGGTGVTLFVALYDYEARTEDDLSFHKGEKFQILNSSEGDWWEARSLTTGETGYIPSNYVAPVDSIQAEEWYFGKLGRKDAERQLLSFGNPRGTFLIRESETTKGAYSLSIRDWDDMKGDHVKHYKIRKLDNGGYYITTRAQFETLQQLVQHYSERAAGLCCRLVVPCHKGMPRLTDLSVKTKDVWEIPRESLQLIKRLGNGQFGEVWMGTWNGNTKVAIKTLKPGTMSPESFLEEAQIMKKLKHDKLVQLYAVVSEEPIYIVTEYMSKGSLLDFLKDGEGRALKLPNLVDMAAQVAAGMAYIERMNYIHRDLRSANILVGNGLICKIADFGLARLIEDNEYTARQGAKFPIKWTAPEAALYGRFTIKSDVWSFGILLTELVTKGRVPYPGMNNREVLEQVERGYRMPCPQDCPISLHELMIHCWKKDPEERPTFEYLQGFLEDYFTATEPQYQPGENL
UniProt Q8R550: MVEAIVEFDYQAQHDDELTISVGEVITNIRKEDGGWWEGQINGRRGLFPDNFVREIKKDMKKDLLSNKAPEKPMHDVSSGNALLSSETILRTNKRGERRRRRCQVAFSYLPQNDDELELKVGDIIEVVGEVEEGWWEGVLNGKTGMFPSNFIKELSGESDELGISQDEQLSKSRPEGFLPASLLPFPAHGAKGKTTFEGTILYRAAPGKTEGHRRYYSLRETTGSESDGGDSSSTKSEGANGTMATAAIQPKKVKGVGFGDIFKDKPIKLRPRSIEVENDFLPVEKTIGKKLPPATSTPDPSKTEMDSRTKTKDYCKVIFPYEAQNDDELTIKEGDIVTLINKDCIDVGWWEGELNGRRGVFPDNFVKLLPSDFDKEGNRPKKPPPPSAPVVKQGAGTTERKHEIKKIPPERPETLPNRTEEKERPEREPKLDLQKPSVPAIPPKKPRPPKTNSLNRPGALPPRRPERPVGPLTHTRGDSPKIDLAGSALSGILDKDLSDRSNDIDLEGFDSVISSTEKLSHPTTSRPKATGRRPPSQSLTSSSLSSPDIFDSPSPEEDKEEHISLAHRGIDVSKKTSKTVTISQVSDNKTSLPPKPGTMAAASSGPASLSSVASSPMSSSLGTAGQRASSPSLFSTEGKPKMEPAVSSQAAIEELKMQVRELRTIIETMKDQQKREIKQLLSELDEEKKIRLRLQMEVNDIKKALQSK
UniProt P43404: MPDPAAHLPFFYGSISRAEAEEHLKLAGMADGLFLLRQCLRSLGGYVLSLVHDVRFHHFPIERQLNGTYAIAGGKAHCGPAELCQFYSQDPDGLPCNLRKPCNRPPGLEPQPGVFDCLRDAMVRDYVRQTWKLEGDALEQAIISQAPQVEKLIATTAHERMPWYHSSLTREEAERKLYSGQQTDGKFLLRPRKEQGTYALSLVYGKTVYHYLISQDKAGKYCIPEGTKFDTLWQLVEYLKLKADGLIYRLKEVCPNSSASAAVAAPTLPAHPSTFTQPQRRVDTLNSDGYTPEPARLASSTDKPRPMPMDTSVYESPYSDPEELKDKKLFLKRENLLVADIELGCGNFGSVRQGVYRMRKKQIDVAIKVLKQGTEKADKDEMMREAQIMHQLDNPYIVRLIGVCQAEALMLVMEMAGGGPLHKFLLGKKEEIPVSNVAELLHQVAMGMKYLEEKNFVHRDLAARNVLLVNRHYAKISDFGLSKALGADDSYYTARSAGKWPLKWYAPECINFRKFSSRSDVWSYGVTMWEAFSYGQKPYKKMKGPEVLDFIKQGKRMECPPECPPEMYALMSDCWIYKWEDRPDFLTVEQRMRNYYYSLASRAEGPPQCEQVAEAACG
UniProt P06240: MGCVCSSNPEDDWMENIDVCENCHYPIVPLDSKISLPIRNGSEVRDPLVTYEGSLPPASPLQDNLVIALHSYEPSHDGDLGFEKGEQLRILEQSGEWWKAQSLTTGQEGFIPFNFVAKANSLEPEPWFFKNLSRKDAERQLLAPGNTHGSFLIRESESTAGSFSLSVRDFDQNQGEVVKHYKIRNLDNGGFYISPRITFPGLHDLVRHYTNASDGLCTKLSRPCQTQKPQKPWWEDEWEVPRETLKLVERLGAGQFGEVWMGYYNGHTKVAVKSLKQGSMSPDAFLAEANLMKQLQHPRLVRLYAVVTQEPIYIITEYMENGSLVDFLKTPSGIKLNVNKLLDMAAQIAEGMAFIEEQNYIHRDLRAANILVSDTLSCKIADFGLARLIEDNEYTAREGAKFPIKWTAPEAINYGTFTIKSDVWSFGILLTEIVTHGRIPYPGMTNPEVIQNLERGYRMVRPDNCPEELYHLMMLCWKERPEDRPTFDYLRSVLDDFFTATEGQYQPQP
UniProt P62962: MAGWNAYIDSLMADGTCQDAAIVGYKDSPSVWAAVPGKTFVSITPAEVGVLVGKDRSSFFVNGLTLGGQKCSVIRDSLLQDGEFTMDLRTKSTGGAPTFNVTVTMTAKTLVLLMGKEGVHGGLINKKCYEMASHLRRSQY
UniProt P11835, residues 24-771: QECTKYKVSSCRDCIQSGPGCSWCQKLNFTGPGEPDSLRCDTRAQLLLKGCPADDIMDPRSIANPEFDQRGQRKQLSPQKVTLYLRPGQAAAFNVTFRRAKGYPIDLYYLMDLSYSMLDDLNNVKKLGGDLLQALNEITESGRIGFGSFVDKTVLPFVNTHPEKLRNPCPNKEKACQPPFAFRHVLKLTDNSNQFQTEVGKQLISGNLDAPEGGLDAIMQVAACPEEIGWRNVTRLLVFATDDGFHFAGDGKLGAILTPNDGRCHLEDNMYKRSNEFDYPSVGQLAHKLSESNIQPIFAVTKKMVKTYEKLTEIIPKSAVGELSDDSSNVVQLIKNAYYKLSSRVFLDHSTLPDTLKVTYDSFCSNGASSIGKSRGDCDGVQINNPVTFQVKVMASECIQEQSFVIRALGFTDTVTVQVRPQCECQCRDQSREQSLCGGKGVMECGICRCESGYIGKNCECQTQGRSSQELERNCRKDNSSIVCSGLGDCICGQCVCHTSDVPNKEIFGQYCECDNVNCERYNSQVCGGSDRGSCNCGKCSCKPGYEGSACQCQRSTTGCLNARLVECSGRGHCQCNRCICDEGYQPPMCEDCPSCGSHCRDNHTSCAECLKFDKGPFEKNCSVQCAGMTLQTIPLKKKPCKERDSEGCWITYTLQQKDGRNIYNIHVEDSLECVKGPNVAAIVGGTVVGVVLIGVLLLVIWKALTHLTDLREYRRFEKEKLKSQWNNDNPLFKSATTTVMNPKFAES
UniProt Q8BTI9: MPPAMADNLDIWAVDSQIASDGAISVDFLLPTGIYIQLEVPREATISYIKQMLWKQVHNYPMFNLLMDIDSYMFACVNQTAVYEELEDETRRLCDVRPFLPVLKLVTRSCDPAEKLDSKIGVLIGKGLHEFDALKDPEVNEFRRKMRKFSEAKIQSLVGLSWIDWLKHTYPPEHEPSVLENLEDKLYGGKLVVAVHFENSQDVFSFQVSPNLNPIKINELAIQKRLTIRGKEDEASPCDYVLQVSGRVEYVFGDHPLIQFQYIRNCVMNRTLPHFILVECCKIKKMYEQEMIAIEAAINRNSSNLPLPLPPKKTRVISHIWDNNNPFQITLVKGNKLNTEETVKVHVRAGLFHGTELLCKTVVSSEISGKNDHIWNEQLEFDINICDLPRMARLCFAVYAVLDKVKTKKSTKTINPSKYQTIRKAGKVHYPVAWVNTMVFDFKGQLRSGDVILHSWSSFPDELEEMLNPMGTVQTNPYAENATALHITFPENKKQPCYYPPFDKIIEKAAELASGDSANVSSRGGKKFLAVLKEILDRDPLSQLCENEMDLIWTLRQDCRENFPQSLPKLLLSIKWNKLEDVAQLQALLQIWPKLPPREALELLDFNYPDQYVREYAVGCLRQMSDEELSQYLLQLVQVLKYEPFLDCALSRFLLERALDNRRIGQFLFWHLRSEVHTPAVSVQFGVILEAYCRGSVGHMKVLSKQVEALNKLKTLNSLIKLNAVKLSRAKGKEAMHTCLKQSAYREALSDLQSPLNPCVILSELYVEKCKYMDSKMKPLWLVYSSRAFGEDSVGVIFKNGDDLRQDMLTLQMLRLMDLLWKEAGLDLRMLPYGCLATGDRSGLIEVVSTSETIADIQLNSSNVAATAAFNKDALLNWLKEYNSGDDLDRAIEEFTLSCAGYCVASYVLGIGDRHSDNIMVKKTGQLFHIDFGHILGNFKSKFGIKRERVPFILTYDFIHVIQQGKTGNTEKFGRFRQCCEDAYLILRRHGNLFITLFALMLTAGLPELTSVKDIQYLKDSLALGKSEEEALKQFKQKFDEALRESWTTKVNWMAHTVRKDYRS
UniProt Q9CX99: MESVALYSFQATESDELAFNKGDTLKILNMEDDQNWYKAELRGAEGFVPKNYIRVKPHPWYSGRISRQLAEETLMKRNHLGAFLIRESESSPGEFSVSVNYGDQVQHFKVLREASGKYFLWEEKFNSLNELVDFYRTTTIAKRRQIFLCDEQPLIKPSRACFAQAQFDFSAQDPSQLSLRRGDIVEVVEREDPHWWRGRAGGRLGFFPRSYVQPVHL
UniProt O55033: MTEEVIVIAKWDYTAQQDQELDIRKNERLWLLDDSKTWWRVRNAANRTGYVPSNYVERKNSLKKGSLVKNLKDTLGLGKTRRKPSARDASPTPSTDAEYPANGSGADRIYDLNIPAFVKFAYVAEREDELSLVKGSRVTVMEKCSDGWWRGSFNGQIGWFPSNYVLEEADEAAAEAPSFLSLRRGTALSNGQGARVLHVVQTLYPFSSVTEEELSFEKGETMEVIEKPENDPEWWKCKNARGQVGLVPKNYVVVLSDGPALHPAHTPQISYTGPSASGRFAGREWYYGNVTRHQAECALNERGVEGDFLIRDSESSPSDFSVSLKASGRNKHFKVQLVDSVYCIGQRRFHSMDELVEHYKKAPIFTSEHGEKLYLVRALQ
UniProt O08908: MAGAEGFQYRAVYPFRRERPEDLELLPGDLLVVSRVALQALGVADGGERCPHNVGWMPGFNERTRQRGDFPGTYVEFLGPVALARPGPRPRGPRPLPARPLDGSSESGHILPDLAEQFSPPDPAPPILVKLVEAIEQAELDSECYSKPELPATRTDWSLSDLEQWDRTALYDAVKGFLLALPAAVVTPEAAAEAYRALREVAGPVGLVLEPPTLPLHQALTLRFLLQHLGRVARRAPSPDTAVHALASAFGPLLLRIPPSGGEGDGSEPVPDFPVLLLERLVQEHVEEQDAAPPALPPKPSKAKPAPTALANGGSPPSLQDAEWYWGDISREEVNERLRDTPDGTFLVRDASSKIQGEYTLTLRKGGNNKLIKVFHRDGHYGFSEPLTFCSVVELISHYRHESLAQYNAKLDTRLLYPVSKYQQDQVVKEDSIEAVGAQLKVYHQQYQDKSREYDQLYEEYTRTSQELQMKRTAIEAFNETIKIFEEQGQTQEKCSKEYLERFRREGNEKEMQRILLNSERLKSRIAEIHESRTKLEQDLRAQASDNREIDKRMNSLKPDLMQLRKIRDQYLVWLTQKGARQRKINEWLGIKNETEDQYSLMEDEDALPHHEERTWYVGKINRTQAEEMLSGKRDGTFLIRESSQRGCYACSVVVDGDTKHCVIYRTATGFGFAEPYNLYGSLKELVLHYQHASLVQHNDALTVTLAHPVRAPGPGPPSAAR
UniProt P47941: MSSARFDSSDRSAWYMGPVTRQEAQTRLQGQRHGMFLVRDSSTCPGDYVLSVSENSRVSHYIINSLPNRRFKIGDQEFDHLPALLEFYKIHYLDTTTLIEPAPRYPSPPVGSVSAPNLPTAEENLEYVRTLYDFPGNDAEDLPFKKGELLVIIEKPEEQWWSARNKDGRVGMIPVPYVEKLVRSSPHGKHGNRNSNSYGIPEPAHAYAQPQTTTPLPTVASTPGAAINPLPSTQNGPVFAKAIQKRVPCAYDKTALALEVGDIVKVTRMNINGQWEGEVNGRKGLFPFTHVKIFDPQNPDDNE
UniProt Q60631: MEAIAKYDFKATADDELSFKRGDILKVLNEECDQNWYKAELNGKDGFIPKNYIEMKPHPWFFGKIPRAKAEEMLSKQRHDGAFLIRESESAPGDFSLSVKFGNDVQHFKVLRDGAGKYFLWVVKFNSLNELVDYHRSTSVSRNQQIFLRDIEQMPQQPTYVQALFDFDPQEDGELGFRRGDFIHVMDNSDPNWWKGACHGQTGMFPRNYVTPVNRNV

For assay [1], the target named is CBL-OST (mouse) (UniProt P22682). Put plainly: affinity purification with mass spectrometry; CBL-OST or CBLB-OST captured on Strep-Tactin Sepharose (1.5 h, 4°C) from postnuclear lysates (n-dodecyl-β-maltoside) of short-term expanded mouse CD4+ T cells, unstimulated or 30, 120, 300, 600 s after anti-CD3 + anti-CD4 cross-linking; eluted with 2.5 mM D-biotin; label-free LC-MS/MS against wild-type cells as control.

Assay [2] addresses CBLB-OST (mouse) (UniProt Q3TTA7). Described as above.

These are yes or no findings as the source states them, for the method shown. In cells and extracts the contact can be indirect. Here binding means that the protein was enriched with, or labelled near, the bait; the list need not be complete. A no says only that the protein was not detected with the bait.

Regarding UBASH3B (from UniProt Q8BGG7 1-638), the binding entry in assay [1] is recorded as “binds”.

For the substance TUBB4B (from UniProt P68372 1-445), the binding entry in assay [1] is reported as “binds”.

In the case of CRK (from UniProt Q64010 1-304), in assay [2], the binding result is “binds”.

For the substance “FYN (from UniProt P39688 1-537) (enzyme)”, the binding result is “binds” in assay [1] and “no binding” in assay [2].

As to SH3KBP1 (from UniProt Q8R550 1-709), the binding result in assay [1] was “binds”.

For the substance “ZAP-70 (from UniProt P43404 1-618) (enzyme)”, the binding result in assay [1] and in assay [2] was “no binding” each time.

As for “LCK (from UniProt P06240 1-509) (enzyme)”, the binding entry in assay [1] and in assay [2] was “no binding” in each case.

Regarding CAPZA2 (from UniProt P47754 1-286), the binding result in assay [1] is on record as “binds”.

Take IQGAP1 (from UniProt Q9JKF1 1-1657): the binding result in assay [1] is given as “binds”.

With PFN1 (from UniProt P62962 1-140), the binding entry in assay [2] was “binds”.

Regarding CD2AP (from UniProt Q9JLQ0 1-637), the binding result in assay [1] is listed as “binds”.

As to “CSK (from UniProt P41241 1-450) (enzyme)”, the binding result in assay [1] and in assay [2] was “binds” each time.

With “ITGB2 (from UniProt P11835 24-771) (receptor)”, the binding result in assay [1] was “binds”.

ITSN2 (from UniProt Q9Z0R6 1-1659): the binding result in assay [1] and in assay [2] was “binds” throughout.

In the case of “PIK3CA (from UniProt P42337 1-1068) (enzyme)”, in assay [1], the binding entry is listed as “binds”.

Consider “catalytic subunit CB of PI3K (from UniProt Q8BTI9 1-1064) (enzyme)”, for which the binding result in assay [1] was “binds”.

For CBLB (from UniProt Q3TTA7 1-982), the binding result in assay [1] is “binds”.

Turning to ARPC1B (from UniProt Q9WV32 1-372), the binding entry in assay [1] is reported as “binds”.

In the case of PIK3R1 (from UniProt P26450 1-724), in assay [1], the binding result was “binds”.

As to GRAP (from UniProt Q9CX99 1-217), the binding result in assay [1] and in assay [2] was “binds” in each case.

In the case of NCK2 (from UniProt O55033 1-380), the binding entry in assay [2] was “binds”.

With PIK3R2 (from UniProt O08908 1-722), the binding entry in assay [1] is “binds”.

With CRKL (from UniProt P47941 1-303), the binding result in assay [2] is “binds”.

For the substance TUBB5 (from UniProt P99024 1-444), the binding entry in assay [1] is given as “binds”.

Regarding GRB2 (from UniProt Q60631 1-217), the binding result in assay [2] is reported as “binds”.
